Test results from patent publication US20250388574A1, “HETEROCYCLIC COMPOUNDS AS TRIGGERING RECEPTOR EXPRESSED ON MYELOID CELLS 2 AGONISTS AND METHODS OF USE” (AMGEN INC., priority 2020, published 2025).
At least one structure is not confirmed: it was looked up by name or label, or the drawing left a doubt.

Amino acid sequences for entries named in this document (tags omitted). Residues count along the entry.
UniProt Q9NZC2, 19-230: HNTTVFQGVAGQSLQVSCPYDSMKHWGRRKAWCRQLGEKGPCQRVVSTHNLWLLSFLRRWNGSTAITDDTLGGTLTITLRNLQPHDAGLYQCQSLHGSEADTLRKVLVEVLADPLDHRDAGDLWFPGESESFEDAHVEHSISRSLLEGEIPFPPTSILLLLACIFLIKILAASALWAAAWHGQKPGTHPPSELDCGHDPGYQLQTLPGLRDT

What follows are compounds tested against hTREM2 (Homo sapiens, UniProt Q9NZC2) (assay: Phospho-Syk AlphaScreen/AlphaLISA assay in TREM2 and DAP12 overexpressing HEK293 cells (Example A1)).
Assay type: cell-based
Parameters: expressed in transfected cells
Experimental: Pharmacological measurements of TREM2 signaling through DAP12 were made with TREM2 and DAP12 overexpressing HEK293 cells stable cell lines that had been single-cell cloned (“TREM2/DAP12-HEK”). The readout of the TREM2 signaling utilized Perkin Elmer AlphaScreen/AlphaLISA technology monitoring the phosphorylation levels of the Syk kinase. TREM2/DAP12-HEK cell lines were cultured in DMEM-F12 (Corning 10-092-CM) supplemented with 1× Penicillin/Streptomycin (Corning 30-002-CI), 1× GlutaMAX (Gibco 35050-061), and 10% Fetal Bovine Serum (Life Technologies 10099) referred to as “HEK Culture Medium”. Suspensions of TREM2/DAP12-HEK cells were prepared in HEK Culture Medium and dispensed into 384-well poly-D-lysine coated microplates (Corning 354661) at a density of 20,000 cells/well using a Multidrop Combi peristaltic microplate dispenser (Thermo), 25 uL volume of cell suspension/well. Plates containing cells were then incubated for 20 hours in a humidified cell culture incubator at 37° C. with 5% CO2 (Thermo). […] Assay Buffer contained diluted test articles (in 1% final DMSO concentration for compounds) or 100 nM anti-human/mouse TREM2 antibody (R&D Systems MAB17291) as a positive control, 100 nM or rat IgG2B isotype Ab as a negative control (R&D Systems MAB0061). […] Once the final incubation was completed, acquired AlphaScreen signal from the donor and acceptor beads using an Envision high throughput multi-modal microplate reader (Perkin Elmer) calibrated to the plate type with the AlphaScreen mirror and filter-set in 384-well mode, 680 nanometer excitation wavelength. […] After reading the AlphaScreen signal for each well of the microplates, on a plate-by-plate basis, each raw test article well value (x) was normalized to a Percent of Control (“POC”) value using the following formula: […] […] For concentration response curve analysis with test articles tested at various concentrations, the % of activation values were analyzed with 4 Parameter Logistic or Sigmoidal Dose-Response Models using GeneData Screener (GeneData, AG) or GraphPad Prism 7 (Graphpad Software, Inc.). […]

| SMILES | Emax |
| --- | --- |
| Cc1ccc(-c2nc(N3CCO[C@@H](c4cnn(C)c4)C3)cc3nc(C)n(C)c(=O)c23)c(F)c1 [Example 12, 5-(2-fluoro-4-methylphenyl)-2,3-dimethyl-7-((2S)-2-(1-methyl-1H-pyrazol-4-yl)-4-morpholinyl)pyrido[4,3-d]pyrimidin-4(3H)-one] | +++ (Emax>200 and ≤300) |
| Cc1nc2cc(N3CCO[C@H]([C@@H]4CCOC4)C3)nc(-c3ccc(Cl)cc3F)c2c(=O)n1C (single isomer, unassigned) [Example 45] | +++ (Emax>200 and ≤300) |
| Cc1nc2cc(N3CCO[C@@H](c4cnn(C)c4)C3)nc(-c3ccc(C(F)(F)F)nc3)c2c(=O)n1C [Example 17, 2,3-dimethyl-7-((2S)-2-(1-methyl-1H-pyrazol-yl)-4-morpholinyl)-5-(6-(trifluoromethyl)-3-pyridinyl)pyrido[4,3-d]pyrimidin-4(3H)-one] | ++++ (Emax>300) |
